# Cleaved PARP in drug-treated melanoma cells

First drug in all entries: nilutamide, 5 µM, CC1(C)NC(=O)N(c2ccc([N+](=O)[O-])c(C(F)(F)F)c2)C1=O

Compounds and concentrations:
SNS-032, 0.05 µM: CC(C)(C)c1cnc(CSc2cnc(NC(=O)C3CCNCC3)s2)o1
vatalanib, 10 µM: Clc1ccc(Nc2nnc(Cc3ccncc3)c3ccccc23)cc1
FK866, 0.05 µM: O=C(/C=C/c1cccnc1)NCCCCC1CCN(C(=O)c2ccccc2)CC1
KU-55933, 5 µM: O=c1cc(-c2cccc3c2Sc2ccccc2S3)oc(N2CCOCC2)c1
bexarotene, 10 µM: C=C(c1ccc(C(=O)O)cc1)c1cc2c(cc1C)C(C)(C)CCC2(C)C
GW9662, 10 µM: O=C(Nc1ccccc1)c1cc([N+](=O)[O-])ccc1Cl
PF-04217903, 5 µM: OCCn1cc(-c2cnc3nnn(Cc4ccc5ncccc5c4)c3n2)cn1
crizotinib, 1 µM: C[C@@H](Oc1cc(-c2cnn(C3CCNCC3)c2)cnc1N)c1c(Cl)ccc(F)c1Cl
tipifarnib, 0.05 µM: Cn1cncc1[C@@](N)(c1ccc(Cl)cc1)c1ccc2c(c1)c(-c1cccc(Cl)c1)cc(=O)n2C
dasatinib, 0.02 µM: Cc1nc(Nc2ncc(C(=O)Nc3c(C)cccc3Cl)s2)cc(N2CCN(CCO)CC2)n1
everolimus, 0.1 µM: CO[C@H]1C[C@@H]2CC[C@@H](C)[C@@](O)(O2)C(=O)C(=O)N2CCCC[C@H]2C(=O)O[C@H]([C@H](C)C[C@@H]2CC[C@@H](OCCO)[C@H](OC)C2)CC(=O)[C@H](C)/C=C(\C)[C@@H](O)[C@@H](OC)C(=O)[C@H](C)C[C@H](C)/C=C/C=C/C=C/1C
vismodegib, 5 µM: CS(=O)(=O)c1ccc(C(=O)Nc2ccc(Cl)c(-c3ccccn3)c2)c(Cl)c1
lenalidomide, 5 µM: Nc1cccc2c1CN(C1CCC(=O)NC1=O)C2=O (stereo unspecified)
BI-D1870, 1 µM: CC(C)CCN1c2nc(Nc3cc(F)c(O)c(F)c3)ncc2N(C)C(=O)C1C (stereo unspecified)
PF-562271, 0.4 µM: CN(c1ncccc1CNc1nc(Nc2ccc3c(c2)CC(=O)N3)ncc1C(F)(F)F)S(C)(=O)=O
KU-0063794, 0.1 µM: COc1ccc(-c2ccc3c(N4CCOCC4)nc(N4C[C@@H](C)O[C@@H](C)C4)nc3n2)cc1CO
GW0742, 10 µM: Cc1cc(SCc2sc(-c3ccc(C(F)(F)F)c(F)c3)nc2C)ccc1OCC(=O)O
CHIR-265, 0.4 µM: Cn1c(Nc2ccc(C(F)(F)F)cc2)nc2cc(Oc3ccnc(-c4ncc(C(F)(F)F)[nH]4)c3)ccc21
dovitinib, 0.5 µM: CN1CCN(c2ccc3nc(-c4c(N)c5c(F)cccc5[nH]c4=O)[nH]c3c2)CC1
enzastaurin, 4 µM: Cn1cc(C2=C(c3cn(C4CCN(Cc5ccccn5)CC4)c4ccccc34)C(=O)NC2=O)c2ccccc21
bortezomib, 0.005 µM: CC(C)C[C@H](NC(=O)[C@H](Cc1ccccc1)NC(=O)c1cnccn1)B(O)O
temozolomide, 10 µM: Cn1nnc2c(C(N)=O)ncn2c1=O
GSK650394, 0.8 µM: O=C(O)c1ccc(-c2c[nH]c3ncc(-c4ccccc4)cc23)cc1C1CCCC1

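Human melanoma cells were exposed to two drugs together for 72 h in 1,536-well plates and read by automated microscopy after fixing and staining. Each value is the cleaved-PARP-positive fraction of nuclei relative to DMSO-treated wells, in %, so that 100 equals the control and higher values mean more apoptosis. Concentrations were fixed for each drug; these are the higher of two levels. The file gives one value for each pair and line, without errors, so small differences may be noise. Basal and induced levels differ widely between cell lines.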
An unselected part of the screen is shown.
An entry leaves out what has no value listed here.
A dash means that no value is listed here.

Results for PF-04217903 are COLO 829: 131. KU-55933 gave COLO 829: 196; 501mel: 159. For KU-0063794 the values were COLO 829: 140; 501mel: 43.9. Results for GSK650394 are COLO 829: 257. For GW9662 the values were COLO 829: 271; 501mel: 112.

Results for SNS-032 are COLO 829: 84.4. Results for vatalanib are COLO 829: 172. Results for temozolomide are COLO 829: 147. For everolimus the values were COLO 829: 62.2. With vismodegib the screen read COLO 829: 69.2.

Results for FK866 are COLO 829: 726. With GW0742 the screen read COLO 829: 48.0; 501mel: 178. Results for PF-562271 are COLO 829: 82.1. dasatinib gave COLO 829: 148. For enzastaurin the values were COLO 829: 105.

lenalidomide gave COLO 829: 117. For dovitinib the values were COLO 829: 130. Results for crizotinib are COLO 829: 39.3. With tipifarnib the screen read COLO 829: 86.1. For CHIR-265 the values were COLO 829: 92.9.

For bexarotene the values were COLO 829: 179. Results for BI-D1870 are COLO 829: 77.6; 501mel: 138. For bortezomib the values were COLO 829: 2630.

For reference, 3 entries once more:

| Second drug | COLO 829 | 501mel |
|---|---|---|
| BI-D1870 | 77.6 | 138 |
| everolimus | 62.2 | - |
| vismodegib | 69.2 | - |

Data from the primary screen of doi:10.1371/journal.pone.0140310, rounded.